# Paper PMC12403285
# Chains of the proteins cited; added tags and fusions are not shown.
# UniProt P19474: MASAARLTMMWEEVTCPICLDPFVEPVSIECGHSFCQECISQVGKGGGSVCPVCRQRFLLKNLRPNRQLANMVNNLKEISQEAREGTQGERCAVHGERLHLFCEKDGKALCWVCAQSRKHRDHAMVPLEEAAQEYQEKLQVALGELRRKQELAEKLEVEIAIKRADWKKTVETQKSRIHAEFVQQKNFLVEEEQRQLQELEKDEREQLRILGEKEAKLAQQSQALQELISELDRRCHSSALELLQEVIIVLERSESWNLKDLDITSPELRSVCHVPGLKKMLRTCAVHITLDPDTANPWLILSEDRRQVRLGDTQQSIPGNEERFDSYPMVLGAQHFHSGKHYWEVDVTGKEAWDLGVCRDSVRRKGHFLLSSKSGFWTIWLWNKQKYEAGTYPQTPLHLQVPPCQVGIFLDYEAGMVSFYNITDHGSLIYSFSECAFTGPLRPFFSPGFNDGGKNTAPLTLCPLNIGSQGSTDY
# Results are given in words; binding and its absence hold for the method and conditions named. In cells and extracts the contact can be indirect. Some binding calls cover weakened binding; strength is not graded here.
# Target: T1, Plakophilin-1 (human (endogenous in SK-MES-1)) (UniProt Q13835)
# T1 sequence: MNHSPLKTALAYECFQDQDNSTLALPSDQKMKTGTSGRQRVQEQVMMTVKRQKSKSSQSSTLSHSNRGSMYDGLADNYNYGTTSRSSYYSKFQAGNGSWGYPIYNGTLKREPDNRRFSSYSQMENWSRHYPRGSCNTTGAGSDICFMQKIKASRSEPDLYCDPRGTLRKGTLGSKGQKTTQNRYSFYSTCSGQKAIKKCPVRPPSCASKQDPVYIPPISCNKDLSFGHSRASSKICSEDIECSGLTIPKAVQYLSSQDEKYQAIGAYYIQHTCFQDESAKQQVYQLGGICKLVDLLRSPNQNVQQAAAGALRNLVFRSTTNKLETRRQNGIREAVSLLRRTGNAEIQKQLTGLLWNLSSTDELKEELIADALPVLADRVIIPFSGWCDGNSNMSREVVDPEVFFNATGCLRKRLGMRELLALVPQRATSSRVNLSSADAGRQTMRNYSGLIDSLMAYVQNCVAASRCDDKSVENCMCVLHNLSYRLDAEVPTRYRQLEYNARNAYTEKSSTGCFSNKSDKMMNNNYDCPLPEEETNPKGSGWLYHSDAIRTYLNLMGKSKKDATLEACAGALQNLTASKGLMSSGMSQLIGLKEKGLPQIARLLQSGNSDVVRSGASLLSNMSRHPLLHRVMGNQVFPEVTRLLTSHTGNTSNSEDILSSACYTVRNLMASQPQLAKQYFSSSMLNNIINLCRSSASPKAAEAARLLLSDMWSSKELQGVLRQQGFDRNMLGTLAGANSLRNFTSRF
# Assay: co-IP; independent co-IP of PKP1 and TRIM21 in SK-MES-1 cell line, immunoblot; which protein was precipitated is not told
substance,measurement,value
TRIM21 (from UniProt P19474 1-475),binding,binds
